Source: US20240092935A1

Key:
[1] = target: Asialo-BSM (desialylated bovine submaxillary mucin) (bovine); experiment: flow cytometry inhibition assay on LSC cells, soluble Asialo-BSM as inhibitor
[2] = target: Asialo-BSM (desialylated bovine submaxillary mucin) (bovine); experiment: Western blot with BaGs6 ascites
[3] = target: Bovine submaxillary mucin (BSM) (bovine); experiment: Western blot with BaGs6 ascites
[4] = target: Asialo-BSM (desialylated bovine submaxillary mucin) (bovine); experiment: fluorescence microscopy of Asialo-BSM beads
[5] = target: Bovine submaxillary mucin (BSM) (bovine); experiment: fluorescence microscopy of BSM beads

Measured: binding

B1: BaGs6, murine IgM anti-Tn monoclonal antibody from mouse ascites (antibody, V domains shown)
VH: DTMLQQSDAELVKPGASVKMSCKASGYTFTDHAIHWVKQKPEQGLEWIGYVSPGNGDIKYNEKFKGKATLSADKSSSTAYMQLNSLTSEDSAVYFCKRSYGSFDYWGQGTTLTVSS
VL: QIVLTQSPAIMSSSPGEKVALSCSASSSVSYVYWYQQKPGSSPKPWIYRTSNLASGVPARFSGSGSGTSYSLTISSMEAEDAATYYCQQYHSYPFTFGSGTKLEIKR
binds: [1] | [2] | [3] | [4] | [5]

No constants are given. Whether binding was seen depends on the method and setting. A result given as binding can be weak or reduced; the word gives no strength.
